Measurements as given in the supplement of paper PMC6078165.
± gives the standard deviation of the averaged measurements. Values are relative to the signal before dosing, not to a vehicle control; the signal also falls without drug.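 Fibroblast labels denote human fibroblasts, mainly primary ones from uterus (C12385, HUF), lung (H6013), bone (Hs27A), adrenal (HADF) and skin (WS1), plus mammary HMF and breast cancer-associated Hs343T. Cancer cells are basal-like or mesenchymal-like triple-negative breast cancer lines. A hit is a response shift exceeding 3x replicate standard deviation. The tissue of the other fibroblasts is not given here.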

Test system: MDAMB468
Assay: relative JC-1 red fluorescence (viability) vs pre-drug, coculture with fibroblast (fraction); higher = more viable cancer cells
Method: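 JC-1 labelled TNBC cells cocultured 1:1 (1,500 cells each) with CellTrace Violet stained primary or stromal fibroblasts in 384-well plates in FluoroBrite medium, treated with one of 42 anticancer drugs at 0.1, 1, 10 or 100 uM. JC-1 red fluorescence (mitochondrial integrity in cancer cells only) was read by plate reader every 8 h for 72 h. Values are normalised to each well's pre-drug value. The stock of one drug was tenfold lower, so its dose labels may be too high.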

CN(Cc1cnc2nc(N)nc(N)c2n1)c1ccc(C(=O)N[C@@H](CCC(=O)O)C(=O)O)cc1 [Methotrexate]
relative JC-1 red fluorescence
Settings | 8 h | 16 h | 24 h | 32 h | 40 h | 48 h | 56 h | 64 h | 72 h
10 µM, coculture fibroblast: C12385 | 0.931 ± 0.012 | 0.87 ± 0.047 | 0.855 ± 0.046 | 0.82 ± 0.044 | 0.787 ± 0.035 | 0.79 ± 0.026 | 0.742 ± 0.027 | 0.715 ± 0.015 | 0.703 ± 0.012
10 µM, coculture fibroblast: H6013 | 0.8758 ± 0.0071 | 0.817 ± 0.012 | 0.769 ± 0.016 | 0.756 ± 0.02 | 0.714 ± 0.026 | 0.721 ± 0.035 | 0.685 ± 0.037 | 0.67 ± 0.031 | 0.605 ± 0.04
10 µM, coculture fibroblast: H6019 | 0.8314 ± 0.0068 | 0.808 ± 0.024 | 0.771 ± 0.029 | 0.72 ± 0.024 | 0.679 ± 0.028 | 0.6665 ± 0.0052 | 0.625 ± 0.012 | 0.601 ± 0.0081 | 0.584 ± 0.0095
10 µM, coculture fibroblast: H6076 | 0.922 ± 0.046 | 0.926 ± 0.053 | 0.87 ± 0.011 | 0.8636 ± 0.0036 | 0.7922 ± 0.0066 | 0.789 ± 0.03 | 0.741 ± 0.042 | 0.726 ± 0.065 | 0.787 ± 0.091
10 µM, coculture fibroblast: H6231 | 0.8623 ± 0.0012 | 0.9822 ± 0.0067 | 0.841 ± 0.015 | 0.836 ± 0.028 | 0.767 ± 0.029 | 0.743 ± 0.031 | 0.689 ± 0.035 | 0.662 ± 0.036 | 0.646 ± 0.033
10 µM, coculture fibroblast: HADF | 0.9149 ± 0.0086 | 0.852 ± 0.037 | 0.805 ± 0.041 | 0.797 ± 0.04 | 0.756 ± 0.038 | 0.747 ± 0.039 | 0.704 ± 0.046 | 0.691 ± 0.037 | 0.626 ± 0.038
10 µM, coculture fibroblast: HCFa | 0.86393 ± 0.00049 | 0.784 ± 0.0027 | 0.722 ± 0.0094 | 0.69 ± 0.028 | 0.613 ± 0.026 | 0.6 ± 0.021 | 0.543 ± 0.02 | 0.513 ± 0.021 | 0.472 ± 0.019
10 µM, coculture fibroblast: HCPF | 0.8909 ± 0.0016 | 0.968 ± 0.045 | 0.885 ± 0.044 | 0.862 ± 0.053 | 0.797 ± 0.039 | 0.766 ± 0.032 | 0.703 ± 0.023 | 0.683 ± 0.018 | 0.6612 ± 0.003
10 µM, coculture fibroblast: HHSteC | 0.9134 ± 0.002 | 0.8743 ± 0.0013 | 0.8358 ± 0.0048 | 0.8082 ± 0.0033 | 0.77 ± 0.02 | 0.774 ± 0.021 | 0.708 ± 0.038 | 0.696 ± 0.042 | 0.651 ± 0.043
10 µM, coculture fibroblast: HMF | 0.83 ± 0.014 | 0.968 ± 0.016 | 0.897 ± 0.017 | 0.8732 ± 0.0011 | 0.8033 ± 0.006 | 0.7783 ± 0.0056 | 0.71804 ± 0.00017 | 0.7009 ± 0.0019 | 0.67983 ± 0.00011
10 µM, coculture fibroblast: HPFa | 0.948 ± 0.042 | 0.908 ± 0.019 | 0.883 ± 0.035 | 0.817 ± 0.039 | 0.796 ± 0.032 | 0.794 ± 0.022 | 0.735 ± 0.015 | 0.724 ± 0.017 | 0.655 ± 0.013
10 µM, coculture fibroblast: HUF | 0.912 ± 0.012 | 0.8303 ± 0.0039 | 0.788 ± 0.015 | 0.732 ± 0.013 | 0.6909 ± 0.0048 | 0.6821 ± 0.0015 | 0.637 ± 0.0095 | 0.6256 ± 0.0035 | 0.6153 ± 0.0019
10 µM, coculture fibroblast: Hs5 | 0.868 ± 0.17 | 0.9551 ± 0.0074 | 0.9017 ± 0.0052 | 0.885 ± 0.01 | 0.812 ± 0.0088 | 0.791 ± 0.021 | 0.757 ± 0.011 | 0.736 ± 0.014 | 0.782 ± 0.036
10 µM, coculture fibroblast: Hs27A | 0.894 ± 0.02 | 0.866 ± 0.013 | 0.832 ± 0.024 | 0.824 ± 0.018 | 0.782 ± 0.037 | 0.789 ± 0.036 | 0.751 ± 0.02 | 0.746 ± 0.024 | 0.6889 ± 0.0059
10 µM, coculture fibroblast: Hs343T | 0.859 ± 0.036 | 0.939 ± 0.037 | 0.867 ± 0.013 | 0.839 ± 0.013 | 0.763 ± 0.026 | 0.733 ± 0.032 | 0.679 ± 0.02 | 0.657 ± 0.016 | 0.631 ± 0.012
10 µM, coculture fibroblast: WS1 | 0.881 ± 0.014 | 0.781 ± 0.028 | 0.734 ± 0.031 | 0.69 ± 0.032 | 0.633 ± 0.023 | 0.595 ± 0.043 | 0.561 ± 0.049 | 0.533 ± 0.057 | 0.521 ± 0.066
100 µM, coculture fibroblast: C12385 | 0.903 ± 0.016 | 0.841 ± 0.016 | 0.811 ± 0.022 | 0.748 ± 0.03 | 0.699 ± 0.038 | 0.682 ± 0.034 | 0.636 ± 0.026 | 0.607 ± 0.028 | 0.59 ± 0.033
100 µM, coculture fibroblast: H6013 | 0.842 ± 0.013 | 0.818 ± 0.011 | 0.759 ± 0.013 | 0.731 ± 0.017 | 0.698 ± 0.015 | 0.704 ± 0.013 | 0.672 ± 0.013 | 0.665 ± 0.021 | 0.604 ± 0.012
100 µM, coculture fibroblast: H6019 | 0.8345 ± 0.0069 | 0.806 ± 0.021 | 0.768 ± 0.034 | 0.706 ± 0.0094 | 0.664 ± 0.013 | 0.6517 ± 0.0015 | 0.6127 ± 0.0039 | 0.5909 ± 0.0023 | 0.561 ± 0.022
100 µM, coculture fibroblast: H6076 | 0.9141 ± 0.0091 | 0.933 ± 0.022 | 0.873 ± 0.01 | 0.87 ± 0.028 | 0.8 ± 0.035 | 0.792 ± 0.018 | 0.747 ± 0.013 | 0.7322 ± 0.007 | 0.794 ± 0.011
100 µM, coculture fibroblast: H6231 | 0.842 ± 0.018 | 0.878 ± 0.048 | 0.81 ± 0.03 | 0.799 ± 0.032 | 0.73 ± 0.032 | 0.703 ± 0.039 | 0.648 ± 0.029 | 0.625 ± 0.036 | 0.611 ± 0.028
100 µM, coculture fibroblast: HADF | 0.8673 ± 0.0024 | 0.857 ± 0.023 | 0.7879 ± 0.0052 | 0.772 ± 0.0095 | 0.714 ± 0.014 | 0.703 ± 0.023 | 0.645 ± 0.027 | 0.623 ± 0.023 | 0.559 ± 0.025
100 µM, coculture fibroblast: HCFa | 0.869 ± 0.017 | 0.848 ± 0.016 | 0.784 ± 0.015 | 0.748 ± 0.039 | 0.691 ± 0.051 | 0.674 ± 0.053 | 0.621 ± 0.064 | 0.595 ± 0.066 | 0.548 ± 0.074
100 µM, coculture fibroblast: HCPF | 0.846 ± 0.034 | 0.926 ± 0.035 | 0.846 ± 0.013 | 0.829 ± 0.02 | 0.763 ± 0.029 | 0.736 ± 0.025 | 0.681 ± 0.025 | 0.661 ± 0.023 | 0.633 ± 0.031
100 µM, coculture fibroblast: HHSteC | 0.897 ± 0.019 | 0.875 ± 0.015 | 0.831 ± 0.023 | 0.799 ± 0.028 | 0.764 ± 0.031 | 0.764 ± 0.041 | 0.716 ± 0.043 | 0.697 ± 0.036 | 0.649 ± 0.044
100 µM, coculture fibroblast: HMF | 0.8356 ± 0.0083 | 0.94 ± 0.013 | 0.867 ± 0.025 | 0.821 ± 0.031 | 0.748 ± 0.027 | 0.714 ± 0.041 | 0.655 ± 0.037 | 0.63 ± 0.042 | 0.607 ± 0.044
100 µM, coculture fibroblast: HPFa | 0.956 ± 0.019 | 0.894 ± 0.031 | 0.855 ± 0.026 | 0.798 ± 0.013 | 0.7846 ± 0.0055 | 0.786 ± 0.0085 | 0.733 ± 0.0082 | 0.7334 ± 0.0041 | 0.671 ± 0.0078
100 µM, coculture fibroblast: HUF | 0.9171 ± 0.0024 | 0.8392 ± 0.00092 | 0.79333 ± 0.00068 | 0.7367 ± 0.005 | 0.691 ± 0.011 | 0.661 ± 0.014 | 0.622 ± 0.012 | 0.608 ± 0.0079 | 0.58345 ± 0.00015
100 µM, coculture fibroblast: Hs5 | 0.863 ± 0.17 | 0.9212 ± 0.0023 | 0.891 ± 0.023 | 0.862 ± 0.035 | 0.796 ± 0.041 | 0.746 ± 0.046 | 0.713 ± 0.056 | 0.682 ± 0.061 | 0.711 ± 0.068
100 µM, coculture fibroblast: Hs27A | 0.8574 ± 0.0078 | 0.824 ± 0.017 | 0.74 ± 0.029 | 0.721 ± 0.044 | 0.653 ± 0.055 | 0.642 ± 0.063 | 0.591 ± 0.054 | 0.564 ± 0.051 | 0.529 ± 0.045
100 µM, coculture fibroblast: Hs343T | 0.831 ± 0.015 | 0.887 ± 0.027 | 0.8334 ± 0.0078 | 0.808 ± 0.0074 | 0.7253 ± 0.007 | 0.696 ± 0.013 | 0.651 ± 0.024 | 0.634 ± 0.016 | 0.619 ± 0.017
100 µM, coculture fibroblast: WS1 | 0.8636 ± 0.0048 | 0.792 ± 0.014 | 0.756 ± 0.033 | 0.693 ± 0.028 | 0.64 ± 0.03 | 0.601 ± 0.036 | 0.563 ± 0.041 | 0.534 ± 0.052 | 0.51 ± 0.048
